Test results taken from patent US20220348584A1, “PERK INHIBITING INDOLINYL COMPOUNDS” (HiberCell, Inc., priority 2019, published 2022).
Some of these results come from one statement about several compounds together.

Assays:
[1] = target: T1, EIF2AK3 (PERK) catalytic domain (amino acids 536-1116) (Homo sapiens, UniProt Q9NZJ5); assay: PERK In Vitro Activity Assay (Isolated), TR-FRET kinase assay; type: biochemical; conditions: statement in words
T1 construct: EIF2AK3 (PERK) catalytic domain (amino acids 536-1116); purchased Invitrogen, Carlsbad, Calif
T1 sequence (Q9NZJ5 536-1116): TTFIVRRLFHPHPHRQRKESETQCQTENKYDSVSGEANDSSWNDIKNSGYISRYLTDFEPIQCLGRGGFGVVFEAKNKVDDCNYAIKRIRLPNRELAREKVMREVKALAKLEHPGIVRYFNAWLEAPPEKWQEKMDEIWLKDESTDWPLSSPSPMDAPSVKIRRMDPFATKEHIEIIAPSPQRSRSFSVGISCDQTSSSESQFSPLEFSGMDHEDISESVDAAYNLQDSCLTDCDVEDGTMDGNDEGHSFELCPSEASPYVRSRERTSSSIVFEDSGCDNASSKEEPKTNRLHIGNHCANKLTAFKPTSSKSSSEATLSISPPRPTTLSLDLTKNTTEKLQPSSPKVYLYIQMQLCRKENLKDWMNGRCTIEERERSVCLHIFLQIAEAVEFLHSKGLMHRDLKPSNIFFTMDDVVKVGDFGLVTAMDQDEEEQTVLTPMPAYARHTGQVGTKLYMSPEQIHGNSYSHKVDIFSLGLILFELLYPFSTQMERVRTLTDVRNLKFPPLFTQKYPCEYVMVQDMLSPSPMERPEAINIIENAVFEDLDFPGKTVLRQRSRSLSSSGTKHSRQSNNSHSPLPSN

HEK293-EGFP-eIF2a cells = assay: PERK Cellular Assay (TR-FRET, GFP-eIF2α, tunicamycin-induced ER stress); type: cell-based, human; conditions: statement in words
Procedure, shortened: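 Compounds were added 30 min before a 2 h tunicamycin (1 mM) challenge of lentivirally made GFP-eIF2α HEK293 cells, 5000/well; lysate TR-FRET ratio was the read-out.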

For Cc1cccc(CC(=O)N2CCc3c2ccc(-c2cnc(N)c(C(=O)NC(C)C)c2)c3F)n1 [Example 29, 2-amino-5-(4-fluoro-1-(2-(6-methylpyridin-2-yl)acetyl)indolin-5-yl)-N-isopropylnicotinamide], the “inhibition of isolated PERK enzyme activity in vitro” value [1] was “inhibit isolated PERK enzyme activity in vitro” and the “inhibition of EIF2a in vitro (cellular assay)” value (“inhibition of EIF2a in vitro” for short) (HEK293-EGFP-eIF2a cells) was “inhibit EIF2a in vitro”.

With Cn1cc(-c2ccc3c(c2F)CCN3C(=O)C(F)(F)c2ccccc2)c2c(N)ncnc21 [Example 30, 1-(5-(4-amino-7-methyl-7H-pyrrolo[2,3-d]pyrimidin-5-yl)-4-fluoroindolin-1-yl)-2,2-difluoro-2-phenylethanone] the “inhibition of isolated PERK enzyme activity in vitro” value [1] was “inhibit isolated PERK enzyme activity in vitro” and the “inhibition of EIF2a in vitro” value (HEK293-EGFP-eIF2a cells) was “inhibit EIF2a in vitro”.

Cc1cc(C)n(CC(=O)N2CCc3c2ccc(-c2cn(C)c4nc(C)nc(N)c24)c3F)n1 [Example 32, 1-(5-(4-amino-2,7-dimethyl-7H-pyrrolo[2,3-d]pyrimidin-5-yl)-4-fluoroindolin-1-yl)-2-(3,5-dimethyl-1H-pyrazol-1-yl)ethanone] was tested, and the “inhibition of isolated PERK enzyme activity in vitro” value [1] was “inhibit isolated PERK enzyme activity in vitro” and the “inhibition of EIF2a in vitro” value (HEK293-EGFP-eIF2a cells) was “inhibit EIF2a in vitro”.

For Cc1nc(-c2ccc3c(c2)CCN3C(=O)Cc2cc(F)cc(C(F)(F)F)c2)c2c(N)ncc(Cl)n12 [Example 33, 1-(5-(8-amino-5-chloro-3-methylimidazo[1,5-a]pyrazin-1-yl)indolin-1-yl)-2-(3-fluoro-5-(trifluoromethyl)phenyl)ethanone], the “inhibition of isolated PERK enzyme activity in vitro” value [1] was “inhibit isolated PERK enzyme activity in vitro” and the “inhibition of EIF2a in vitro” value (HEK293-EGFP-eIF2a cells) was “inhibit EIF2a in vitro”.
